Holding throughout (experiment): EMSA
The subject of one series is MyoD:E12 heterodimer.
Series [1] deals with SP1-site binding nuclear factor (chick muscle and dermal fibroblast nuclear extract) (Gallus gallus). The following applies: protein in an extract.
In series [2] the test system is CAAT binding factor (chick skeletal muscle nuclear extract) (Gallus gallus). The following applies: protein in an extract.

For part of these data: A weaker result is weaker than the reference pair of the same experiment. For part of these data: Construct, isoform or probe ends are uncertain for at least one entry. For part of these data: At least one result comes from cells or an extract, where the contact may be indirect.

Consider “GGCAGGCTGCA (double strand) [myoD PRR B site (-260)]”, for which, in the series with MyoD:E12 heterodimer, the binding result is “binds more weakly”.
As for “CCGCCC (double strand) [myoD PRR -110 SP1 site oligonucleotide]”, in series [1], the binding result is “binds”.
As to “CACTCCTATTGGC (double strand) [myoD PRR M-CAT and CAAT oligonucleotide]”, in series [2], the binding result was “binds”.
